Record: PubChem BioAssay AID1259308 (NCATS, 2017)
Test: 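Candidate targets for better recombinant protein yield in mammalian cells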 (primary screen). Cell system: human HEK293 embryonic kidney cells stably expressing firefly luciferase (HEK-CMV-Luc2-Hygro). Knock-down reagent: single siRNA against human genes, 0.8 pmol siRNA per well. Time to read-out: 72 h. Measured: 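Luciferase light (ONE-Glo) measured on one replicate plate set and viability (CellTiter-Glo) on the other, scaled to a negative control siRNA, with robust z-scores and luciferase per cell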. Direction: total luciferase, z-score and total luciferase, % of control: higher = more reporter protein produced; luciferase per cell, z-score: higher = more reporter output per viable cell. Hit rule: 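Active when the median/MAD z-score for overall luciferase is greater than 3; a gene was taken forward for validation with new siRNAs if at least two of its three siRNAs passed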. Meaning of the calls: active = raised luciferase; inactive = no rise.
Here is one part, drawn at random, of about 59,000 deposited reagents. In the full data, about 1,510 (2.6%) were called active. 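Calls use total luciferase alone and ignore viability, so some active siRNAs may act by altering cell number.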 A number with no mark means an inactive call. Reagents against one gene are numbered here. Not all columns of the deposit are shown. No sequences are given here.

gene | reagent | total luciferase, z-score | total luciferase, % of control | luciferase per cell, z-score
TMEM203 | 1 | 1.51 | 112 | 1.49
TMEM203 | 2 | 0.62 | 94.2 | 0.906
TMEM203 | 3 | 0.228 | 86.4 | 0.35
CLIC1 | 1 | 0.814 | 98.1 | 0.0851
CLIC1 | 2 | 0.0688 | 83.3 | -0.174
CLIC1 | 3 | 0.113 | 84.1 | 0.566
CISD2 | 1 | -0.112 | 79.7 | -0.726
CISD2 | 2 | -1.44 | 53.2 | -0.588
CISD2 | 3 | -0.812 | 65.7 | -0.435
TSPYL5 | 1 | 1.29 | 108 | 0.642
TSPYL5 | 2 | 0.806 | 97.9 | 1.73
TSPYL5 | 3 | -0.923 | 63.5 | -1.07
PNPT1 | 1 | 0.0423 | 82.7 | 0.0929
PNPT1 | 2 | -0.257 | 76.8 | 0.139
PNPT1 | 3 | -0.871 | 64.6 | -0.309
MRGPRX3 | 1 | 3.03 (active) | 142 | 1.84
MRGPRX3 | 2 | 0.355 | 88.9 | 0.273
MRGPRX3 | 3 | -0.261 | 76.7 | -0.555
ATP1A4 | 1 | -0.412 | 73.7 | -0.909
ATP1A4 | 2 | -0.0334 | 81.2 | -0.75
ATP1A4 | 3 | 0.0191 | 82.3 | -0.646
OR2W1 | 1 | 0.14 | 84.7 | 0.0294
OR2W1 | 2 | 4.44 (active) | 170 | 2.77
OR2W1 | 3 | 0.833 | 98.4 | 1.31
OLFML2B | 1 | 0.408 | 90 | -0.639
OLFML2B | 2 | 1.08 | 103 | 0.776
OLFML2B | 3 | -0.093 | 80 | 0.677
C17orf75 | 1 | -0.217 | 77.6 | 0.0972
C17orf75 | 2 | -1.18 | 58.5 | -1
C17orf75 | 3 | -0.721 | 67.5 | -0.525
H2BC14 | 1 | 0.205 | 86 | -0.103
H2BC14 | 2 | -1.02 | 61.6 | -0.701
H2BC14 | 3 | 1.35 | 109 | 2.09
DNTT | 1 | -0.284 | 76.2 | -0.426
DNTT | 2 | 0.0592 | 83.1 | -0.284
DNTT | 3 | -0.199 | 77.9 | -0.165
JAK1 | 1 | -2.1 | 40.1 | -0.541
JAK1 | 2 | -0.679 | 68.4 | -1.02
JAK1 | 3 | 1.99 | 122 | 1.37
FBRSL1 | 1 | -1.05 | 61 | -0.823
FBRSL1 | 2 | -0.417 | 73.6 | -0.22
FBRSL1 | 3 | 1.96 | 121 | 0.613
FBRSL1 | 4 | 1.06 | 103 | 1.48
FBRSL1 | 5 | -0.254 | 76.8 | -0.628
FBRSL1 | 6 | 0.837 | 98.5 | -0.0214
SPAM1 | 1 | -0.344 | 75 | -0.26
SPAM1 | 2 | 0.458 | 91 | -0.529
SPAM1 | 3 | 0.437 | 90.6 | 0.749
WAC | 1 | -2.74 | 27.4 | -4.02
WAC | 2 | -1.25 | 57 | -1.42
WAC | 3 | -0.821 | 65.6 | -1.11
RPS7 | 1 | -2.64 | 29.4 | -1.99
RPS7 | 2 | -2.69 | 28.4 | -1.02
RPS7 | 3 | -2.31 | 36 | -1.66
ARSB | 1 | -0.216 | 77.6 | -0.524
ARSB | 2 | 0.233 | 86.5 | 0.175
ARSB | 3 | 1.1 | 104 | 0.365
